Measurements reported in paper PMC6581859.

B1: CandA-N (BiFC fusion) (protein, UniProt C8VP82 1-339)
chain: MGDRHTIQQNLNGLLSKLNDPDPDMRYMSLNDLYGILSNPCSSYLAHDQASATRLAEGLLKALDDQHGDVQNQALKCLGPLVARLPLEGLRTLLERLSNLTTSQTIDTSVPNTALRVIVTALPRPQPNQAPSPDANMAYSAVSEVLIPRLIGPGPHKRRGSVTKGMLEKDPAKGFSSDAIDVLIQVASCFGALLQESELTALEKAVMSIIDNDTAGTVVTKRALAAISALVVYFSDEQFGILVSELVERFNSPQLSTVHRRHLIAAVGCLARTVPAKFGPHLSTLAPFIFSAVGEDNLEVSHVLHYLCTSASNVYSSRNKPKIYHQYRQLPKEKLITGM
B2: CandA-C (BiFC fusion) (protein, UniProt Q5BAH2 1-1041)
chain: MSSDAMSDYSHDDEHDPQTDELRETALVTLEALISSCSSQMQSYLPNTINSALRFLKYDPNVADMGEDEEMSGTQDDGSEDDVTEEPDLEDDDFEDFEEEGGYSDIDDMSWKVRRCAAKLLYAVISTYGRGRALDDTSLYQQIAPAIVARFNKEREESVKLELVSTMDALVRKTAEGSMIMTSSGFLESVGSGSKISRKRRRQDSDASMIDFEPSMGTSSAAGTPLAAPSSPQSGPQSELANALPVIVRSLVTMWKQASIHLKQAIIILLKSLALVRYGGLADHLQQIEDPIADVLKSSLSGAPSASIGISASAGTLQIETLSLISAISETHASDALLPFLIALIPGVIVAVNDKNYKVSSEALAAVEQIVKALTPPRVTTASQDLIFQLEKLYDVSHSRITDTSADLEVRQRAIHVLGVLLARTSDEQGSAFLSFEKRSKGLVTLVDRLKNETTRLSAVRAIDDVAVLCSRKDDVDSNWVREVTAELGAQLRKSDRVLRSASLETLRSLSMNPNTRAHYDGETMKNLEECLIPLISVEDVHLLAPSLIIIAKLVPGNAQLLVNDGLVSAICSIVRTSLAGTVLKALLLLVKVIGEEGSGLTLMQNLLQDVGVNGDTSVVGRSIGTLLVHGGSNVGVRMEDFLSELQKTQDPQRQCLALAILGESALRLGASCSLTPNVFIPHFNSKSEKVRLASATALGNAAAGNVKAYLPTILGGLEKSDPQSYLLLHSVKELLQHPEMVRRDVAPSALKLWQALLVVSKEEDNRAMGAECVGRLALLDPPAYIPQFQEYLANGDAGIRSIVVSAFRFTLSDSRDVFNDVLRPLIVPLLVNMLSDRDLGNHRLALTTLNSAIHNKLALILPHLGELLPAVLGDTQIKPELIREVQMGPFKHKVDDGLELRKSAYETVYAALDTSFSLSHITELYSRILAGIDDEQDIRTICNLMTSKLITLAPEETQRHLDALSERYTAILNFKPKENAVKQEIEKAQEASTGVLKITRELSKAFPNAETMGDHHKWKAYMEMVRAQFGTQLSNLESEF

Biological target: CandA-C1 (BiFC fusion) (A. nidulans)
Experiment: split reporter; BiFC microscopy in A. nidulans hyphae, wild-type background and csnE deletion strain; nuclei stained with H2A-RFP or DAPI

| Binder | binding |
| --- | --- |
| B1 | binds |
| B2 | binds |

These are yes or no findings as the source states them, for the method shown. Binding seen in cells or lysates may run through a third protein. Binding can be weak; no strength is given. Sequences can lack the tags named with a protein.
